{
  "source": "paper PMC8457056",
  "about": "“Remodeling of the Fibrillation Pathway of α‐Synuclein by Interaction with Antimicrobial Peptide LL‐III” (Chemistry (Weinheim an Der Bergstrasse, Germany), 2021)",
  "tested_on": "α‐Syn",
  "experiment": "circular dichroism spectroscopy of the LL-III/α-Syn mixture",
  "type": "biochemical, human",
  "conditions": "300 μM LL-III, 30 μM α-Syn, 20 mM sodium acetate, pH 5.0, 25 °C",
  "data": [
    {"substance": "NH2-VNWKKIL GKIIKVVK -CONH2 [LL‐III]", "values": [
      {"measurement": "conformation of the LL-III/α-Syn mixture after 10 days (CD)", "setting": "10 days", "result": "showed only features of a random conformation"},
      {"measurement": "conformational change on mixing LL-III and α-Syn (CD)", "setting": "day 0", "result": "no conformational changes were observed"}
    ]}
  ]
}
